# Test results taken from PubChem BioAssay AID1259415 (National Center for Advancing Translational Sciences (NCATS), 2018).
# Screen size: about 410,000 compounds; about 18,000 (4.4%) were called active. The inconclusive results got no clear call from the source; some entries with a clear call stand among them for comparison. No stated cut-off is given here; in the data, active means activity change below about -60%; inconclusive means no clear call, values can overlap the other calls; inactive means above about -39%.
# Assay: qHTS Assay for inhibitors of the human cytomegalovirus (HCMV)
# Conditions: HFF cells, HCMV-luciferase reporter, 72 h; at 57.5 µM; active compounds read low
# In short: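 HFF cells seeded 16 h at 37C, treated with compounds, infected with luciferase-reporter HCMV at MOI 1 PFU/cell; luciferase read at 72 h post infection, normalized to buffer-only and Salinomycin controls.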
# On the % scale 0 is the no-effect control and ±100 the full control effect.
row,SMILES,"activity change, negative = inhibition"
1,COc1cc(/C=C/C(=O)OCC(=O)NC(=O)NCc2ccccc2)ccc1OCC#N,inconclusive: -42%
2,CCOc1ccc(NC(=O)CSc2nc3[nH]ncc3c(=O)n2-c2ccccc2OC)cc1,inconclusive: -53.1%
3,CC(C)OC(=O)C1C(c2ccc(I)cc2)CC2CCC1N2C (stereo not given),inconclusive: -58.5%
4,CN(/N=C/c1cc(Br)cc(Br)c1O)c1cccc(C(F)(F)F)n1,active: -65.2%
5,O=C(CCl)NCc1cc(-c2ccc(Cl)cc2)no1,active: -113%
6,Cc1cc(C)cc(Nc2nc3ccccc3c(=O)[nH]2)c1,inconclusive: -58.3%
7,COCCCN(CC(=O)Nc1ccc(N2CCOCC2)cc1)S(=O)(=O)c1ccccc1,inconclusive: -42.3%
8,Cn1c(N)c(Br)c(-c2ccc(F)cc2)c(C#N)c1=O,inconclusive: -47.6%
9,CC(C)C(c1nnnn1C(C)(C)C)N1CCN(Cc2cccnc2)CC1 (stereo not given),inconclusive: -41.8%
10,Cc1ccccc1Nc1c(-c2cccnc2)nc2ccccn12,inconclusive: -40.2%
11,COc1cccc2cc(C(N)=O)/c(=N\NC(=O)c3ccccc3)oc12,inconclusive: -54.8%
12,Nc1ccc(Cc2nc3cc4ccccc4cc3[nH]2)cc1,inconclusive: -41.3%
13,Cc1nc(CSc2nnc(Nc3cccc(C)c3C)s2)cs1,inconclusive: -43.1%
14,CCCCCCCCNC(C)C(O)c1ccc(SC(C)C)cc1 (stereo not given),active: -81.9%
15,NNC(=O)C1c2ccccc2Oc2ccccc21,inconclusive: -49.2%
16,COCCNC(=O)[C@H]1[C@H](CO)[C@H]2Cn3c(ccc(-c4ccc(F)cc4)c3=O)[C@@H]1N2C(=O)NC(C)C,inactive: 3.17%
17,CC(C)CC(=O)NC(=S)Nc1ccc(S(=O)(=O)N2CCCC2)cc1,inconclusive: -47.9%
18,Cc1ccc(NC(=S)NCCSc2ccc(Cl)cc2)cc1,inconclusive: -46%
19,Cn1cc(C(=O)c2ccc(F)cc2)cc1-c1nc2ccccc2n1C,inconclusive: -45%
20,O=C(NCc1cccc(F)c1)c1cccc(OC2CCN(C(=O)C3CC3)CC2)c1,inconclusive: -57.1%
21,Cc1cccc(C(=O)N(Cc2nc3ccccc3c(=O)[nH]2)C2CCCCC2)c1,active: -79.4%
22,COc1ccc(N(C)S(=O)(=O)c2cccc3cccnc23)c(OC)c1,inconclusive: -51.2%

row,SMILES,"activity change, negative = inhibition"
1,CC(=O)OCCN1CCN(C(=O)CN2C(=O)NC(c3ccccc3)(c3ccccc3)C2=O)CC1,inactive: -12.2%
2,CN(c1cccc(Cl)c1)S(=O)(=O)c1cccc(C(=O)NCc2ccncc2)c1,inconclusive: -59.4%
3,O=C(NCC(c1cccnc1)N1CCc2ccccc2C1)C(=O)Nc1ccccc1 (stereo not given),inactive: 32.7%
4,Cc1cc(C)c(NC(=O)/C(=C/c2ccco2)c2ccccc2)c(C)c1,inactive: 0.959%
5,N#CC1(NC(=O)CN2C(=O)NC3(CCCCCC3)C2=O)CCCCC1,inactive: 19.5%
6,CC(=O)NC12CC3CC(C1)CC(C(=O)Oc1ccc(N(C)S(=O)(=O)c4cc(C)ccc4C)cc1)(C3)C2,inactive: -13.4%
7,N=c1sccn1CC(=O)Nc1cc(S(=O)(=O)N2CCCCC2)ccc1Cl,inconclusive: -43.3%
8,Cc1nn(CC(=O)Nc2ccc3c(c2)nc(CCN2CCCCC2)n3C)c(=O)c2ccccc12,active: -62.9%
9,CC1CCN(S(=O)(=O)c2ccc3nc(Nc4ccc(C#N)cc4)ccc3c2)CC1,inconclusive: -48.5%
10,O=C(Oc1oc(-c2ccco2)nc1C=Nc1ccccc1)c1ccoc1,inconclusive: -43.7%
11,Cc1c(NS(=O)(=O)c2cc(C(=O)N3CCCC(C)C3)ccc2Cl)c(=O)n(-c2ccccc2)n1C (stereo not given),inconclusive: -47%
12,COc1cccc(NC(=O)C2CCCN(c3ncnc4c3nc3n4CCCCC3)C2)c1 (stereo not given),inconclusive: -44.2%
13,O=C(/C=C/c1ccccc1Cl)N(c1ccccn1)C1CCCCC1,inconclusive: -40.3%
14,COc1cccc(CNC(=O)C2CCN(S(=O)(=O)N3CCC(C)CC3)CC2)c1,inconclusive: -47.2%
15,COC(=O)CN1C(=S)N(c2ccc(OC)cc2)C(=O)/C1=C/c1ccc(N2CCOCC2)cc1,inconclusive: -44.5%
16,CCCCC(=O)OC1=C(C(=O)c2ccccc2)N(CC)S(=O)(=O)c2ccccc21,inconclusive: -45.6%
17,C=CCn1c(/N=C/c2ccc(N(C)C)cc2)nc2ccccc21,inactive: 1.2%
18,Cc1ccn2c(c1)nc(=S)n2C(=O)c1ccccc1,inconclusive: -49.5%
19,CC(C)n1c(C(=O)OCC(=O)NCc2ccc3c(c2)OCO3)cc2occc21,inconclusive: -42.4%
20,Cc1cc(NC(=O)Cn2nnc3sc4c(c3c2=O)CCC(C(C)(C)C)C4)no1 (stereo not given),inconclusive: -47.4%
21,Cc1ccc(CN2C3CCCC2CC(NC(=O)c2ccc(F)cc2)C3)cc1 (stereo not given),inactive: 8.47%
22,CCOC(=O)c1[nH]c(C)c(C(=O)OCC(=O)N2c3ccccc3CC2C)c1C (stereo not given),inconclusive: -43.6%

row,SMILES,"activity change, negative = inhibition"
1,O=C1COc2ccc(C(=O)COc3ccc(Cl)cc3Br)cc2N1,inconclusive: -42.8%
2,COc1cc(NC(=O)Cc2ccccc2)ccc1NC(=O)c1ccccc1,inactive: -31.6%
3,Cc1ccc(NC(=O)CN2CCCC2c2cccs2)cc1S(=O)(=O)N1CCCCC1 (stereo not given),active: -63.4%
4,CCCCN(C=O)c1c(CC)nc2c(OCc3cccc(Cl)c3)cccn12,inactive: -10.2%
5,CCOc1ccc(Nc2nc(N)nc(CN3CCN(c4ccccc4F)CC3)n2)cc1,inconclusive: -45%
6,CCN1CCN(c2cc(C)c3cc(NC(=O)c4cncc(Br)c4)ccc3n2)CC1,inconclusive: -40.5%
7,Cn1c(C(=O)OC(C(=O)NC2CCCC2)c2cccnc2)cc2sccc21 (stereo not given),inconclusive: -54.4%
8,CCN(CC)C(=O)c1cc(C(C)(C)C)c(O)c(C(C)(C)C)c1,inactive: -17.9%
9,CC1CC(C)(C)CC2(C1)NC(=O)N(CC(=O)Nc1cc([N+](=O)[O-])ccc1F)C2=O (stereo not given),inconclusive: -41%
10,COc1ccccc1C(=O)C1CCCN(C(=O)c2cccc(-n3cccn3)c2)C1 (stereo not given),inconclusive: -48.3%
11,CCOC(=O)Nc1ccc(S(=O)(=O)N2CCC(c3nc4ccccc4[nH]3)CC2)cc1,inactive: -37.5%
12,CCOc1ccc(CCNC(=O)c2cccc(-n3c(C)nc4cccnc43)c2)cc1,inconclusive: 0%
13,COc1ccc(S(=O)(=O)N2CCCCC2)cc1NC(=O)c1ccc2ccccc2n1,inconclusive: -55.4%
14,COc1cc(OC)c(C(=O)OCC(=O)Nc2ccccc2Cl)cc1OC,inconclusive: -55.9%
15,COc1ccc(OC)c(CC(NC(C)=O)C(=O)NC2CCN(c3c(Cc4ccccc4)c(C)nc4ncnn34)CC2)c1 (stereo not given),inconclusive: -53%
16,Cc1ccc(NC(=O)Cn2c(-c3ccc(F)cc3)cnc2SCC(=O)Nc2c(C)cccc2C)cc1,active: -77.7%
17,COc1cccc(NC(=O)N2CCN(c3nc(-c4cccc(OC)c4)cs3)CC2)c1,active: -71.1%
18,O=C(NCc1ccccc1Cl)c1csc([C@H]2C[C@H](O)[C@@H](CO)O2)n1,inactive: 14.3%
19,OC1(c2ccc(F)cc2)CSC(=Nc2cccnc2)N1Cc1ccco1 (stereo not given),inconclusive: -43.3%
20,Nc1ncnc(N)c1NC(=O)c1cc(Cl)c(OCc2ccccc2)c(Cl)c1,inactive: -17.7%
21,COc1cccc(N2CCN(c3nc(-c4ccccc4C)cc(=O)[nH]3)CC2)c1,active: -98.3%
22,O=C(Nc1cccc(NC(=O)c2ccccc2Cl)c1)c1ccco1,inconclusive: -46.8%

# An excerpt of these results, with bars between the fields:
row | SMILES | activity change, negative = inhibition
14 | COc1cc(OC)c(C(=O)OCC(=O)Nc2ccccc2Cl)cc1OC | inconclusive: -55.9%
15 | COc1ccc(OC)c(CC(NC(C)=O)C(=O)NC2CCN(c3c(Cc4ccccc4)c(C)nc4ncnn34)CC2)c1 (stereo not given) | inconclusive: -53%
16 | Cc1ccc(NC(=O)Cn2c(-c3ccc(F)cc3)cnc2SCC(=O)Nc2c(C)cccc2C)cc1 | active: -77.7%
17 | COc1cccc(NC(=O)N2CCN(c3nc(-c4cccc(OC)c4)cs3)CC2)c1 | active: -71.1%
18 | O=C(NCc1ccccc1Cl)c1csc([C@H]2C[C@H](O)[C@@H](CO)O2)n1 | inactive: 14.3%
19 | OC1(c2ccc(F)cc2)CSC(=Nc2cccnc2)N1Cc1ccco1 (stereo not given) | inconclusive: -43.3%

# (cont.)

row,SMILES,"activity change, negative = inhibition"
1,CC1Cc2cc(S(=O)(=O)N(C)c3ccc(Br)cc3)ccc2N1C(=O)C1CC1 (stereo not given),inconclusive: -40.3%
2,CC(=O)c1cccc(NC(=O)C2Cc3c(-c4ccc5c(c4)OCO5)ccnc3O2)c1 (stereo not given),inconclusive: -52.7%
3,Cc1nc(-c2ccc(C)c(S(=O)(=O)N3CCC(C(=O)Nc4ccc(Cl)cc4)CC3)c2)no1,active: -74.8%
4,Cc1ccccc1NC(=O)c1ccc(F)c(S(=O)(=O)N(C)C2CCCCC2)c1,active: -93.6%
5,COc1ccc(/C=N/OCC(=O)N2CC3(C)CC2CC(C)(C)C3)cc1OC (stereo not given),inconclusive: -45.7%
6,C=CCC1NS(=O)(=O)O[C@H](CCCC)[C@@H]1O (stereo not given in full),inconclusive: -46.9%
7,CC1(Cc2cc(Cl)ccc2C(F)(F)F)C(=O)Nc2ccc(-c3ccc(F)c(Cl)c3)cc21 (stereo not given),active: -62.7%
8,CCOc1ccccc1NC(=O)C1CCN(S(=O)(=O)c2ccc3[nH]c4c(c3c2)CCCCC4)CC1,inconclusive: 0%
9,Cc1ccc(OCC(=O)N2CCN(Cc3cccnc3)CC2)cc1,inconclusive: -45%
10,N#Cc1cc(C(=O)c2cc(Br)ccc2O)cn(Cc2ccccc2)c1=O,inconclusive: -50.6%
11,Cc1[nH]c2ccc(C(=O)NC3CCC(C)CC3)cc2c1C (stereo not given),inactive: -14.9%
12,COc1ccc(Cn2c(=O)sc3ccccc32)cc1OC,active: -99.8%
13,O=[N+]([O-])c1ccc(C(O)CNC(=S)Nc2ccccc2)cc1 (stereo not given),inconclusive: -43.7%
14,CCOC(=O)c1cc2c(ccc3nc(C)c(C)c32)[nH]c1C,inactive: -16.7%
15,COc1cc(OC)c(NC(=O)N2CCc3c([nH]c4ccccc34)C2c2ccccc2F)cc1Cl (stereo not given),inconclusive: -47.1%
16,O=[N+]([O-])c1ccc(/C=N/Nc2nc(N3CCCC3)nc(N3CCCC3)n2)o1,inconclusive: -43%
17,COC(=O)/C=C/c1cnc2ccccc2c1,inconclusive: -43.4%
18,O=C(Nc1ccccc1F)c1ccc(Cn2nc(N3CCN(c4ccccc4)CC3)ccc2=O)o1,inconclusive: -51.5%
19,CCN(CC(=O)Nc1c(F)cccc1F)C(=O)c1cc(C)oc1C,inactive: -22.6%
